This note sets out measurements from the supplement of paper PMC12823440, “Inhibitors supercharge kinase turnover through native proteolytic circuits” (Nature, 2025).

The chains behind the UniProt entries cited, without tags or fusion partners.
UniProt Q16620, whole entry, looked up: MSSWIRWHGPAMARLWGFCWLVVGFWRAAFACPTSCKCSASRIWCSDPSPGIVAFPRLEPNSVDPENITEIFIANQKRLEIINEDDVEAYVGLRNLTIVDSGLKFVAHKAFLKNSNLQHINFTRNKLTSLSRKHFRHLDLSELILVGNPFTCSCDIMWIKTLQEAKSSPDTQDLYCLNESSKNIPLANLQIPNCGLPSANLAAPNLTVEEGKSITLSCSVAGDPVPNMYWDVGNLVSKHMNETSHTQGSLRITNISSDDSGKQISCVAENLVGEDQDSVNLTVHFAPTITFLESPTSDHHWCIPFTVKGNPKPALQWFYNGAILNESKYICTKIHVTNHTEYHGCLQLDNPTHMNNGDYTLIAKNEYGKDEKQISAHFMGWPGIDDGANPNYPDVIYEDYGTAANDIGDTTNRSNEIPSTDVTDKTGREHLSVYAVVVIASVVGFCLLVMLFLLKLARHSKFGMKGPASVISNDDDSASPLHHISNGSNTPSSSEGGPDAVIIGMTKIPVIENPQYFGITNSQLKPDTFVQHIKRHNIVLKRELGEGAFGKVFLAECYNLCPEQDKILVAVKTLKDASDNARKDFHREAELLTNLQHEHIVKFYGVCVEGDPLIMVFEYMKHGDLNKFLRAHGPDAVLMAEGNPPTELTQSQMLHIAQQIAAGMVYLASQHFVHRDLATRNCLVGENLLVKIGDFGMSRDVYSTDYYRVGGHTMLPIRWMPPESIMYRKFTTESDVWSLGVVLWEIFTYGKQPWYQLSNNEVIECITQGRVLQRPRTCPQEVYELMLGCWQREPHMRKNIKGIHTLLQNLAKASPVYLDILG

Counter-ions that a name gives are not always drawn. This is one part of the list. Hit calls seldom repeat between salt and free forms of one compound.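 Kinases were expressed as nanoluciferase fusions in K562 cells and luminescence was read every 4 h between 2 and 18 h as percent of control, DMSO set to 100% and a positive control to 0%. A time point counts as decreased when the signal drops significantly (2 sigma). The hit call is the authors' own, does not follow from the count of time points alone, and its rule is not shown.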

The assay concerns the target NTRK2 (UniProt Q16620). The assay is described as follows: number of time points (of 5) at which kinase-Nluc abundance scored as decreased, DMSO-normalised (count); higher = more persistent destabilization. The settings on record: K562; 2-18 h.
As for `C=C(CCC=C(C)C)[C@H]1CC[C@]2(C)[C@@H]1[C@H](O)C[C@@H]1[C@@]3(C)CC[C@H](O[C@@H]4O[C@H](CO)[C@@H](O)[C@H](O)[C@H]4O[C@@H]4O[C@H](CO)[C@@H](O)[C@H](O)[C@H]4O)C(C)(C)[C@@H]3CC[C@]12C` [Ginsenoside Rk1] (10 µM), the “number of time points” value came out at 0.
Take `CCn1c(=O)c(-c2ccc(-c3cncs3)cc2Cl)cc2cnc(Nc3ccc(N4CCN(C)CC4)cc3)nc21` (2.5 µM): the “number of time points” value came out at 0.
Take `Nc1nccc(Oc2ccc(NC(=O)c3cn(COP(=O)(O)O)cc(-c4ccc(F)cc4)c3=O)cc2F)c1Cl` (10 µM): the “number of time points” value is 0.
The same measure for `Cc1cc(-c2cc(OC(=O)c3ccccc3)ccc2Cl)cc2nnc(Nc3ccc(OCCN4CCCC4)cc3)nc12` (0.5 µM): 0; for `OC[C@H]1O[C@@H](Oc2cc3c(O)cc(O)cc3[o+]c2-c2cc(O)c(O)c(O)c2)[C@H](O)[C@@H](O)[C@@H]1O` [Delphinidin 3-glucoside (chloride)] (10 µM): 0; for `O=C(/C=C/c1ccc(O)c(O)c1)c1ccc(O[C@@H]2O[C@H](CO)[C@@H](O)[C@H](O)[C@H]2O)c(O)c1O` [Marein] (10 µM): 0.
The same measure for `O=C1Nc2nc(-c3c(O)cccc3OCC3CC3)cc([C@@H]3CCCNC3)c2CO1` [Bay 65-1942 (hydrochloride)] (10 µM): 0; for `CC(C)CN(CC(=O)N1CCN(CC(OCc2ccc3ccccc3c2)c2ccc(Cl)cc2Cl)CC1)CC(C)C` (stereo not drawn) [LYN-1604 (dihydrochloride)] (2.5 µM): 0.
